This is one part of the list.
compound: c1cn2cc(-c3ccc4cn[nH]c4c3)nc(Nc3ccc(N4CCOCC4)cc3)c2n1 [entospletinib]; assay: log2 fold change, soluble protein after heating vs DMSO (PISA); higher = thermal stabilisation; K562 lysate, 10 uM; active = over 0.2 and 3.5 SD of the protein, either way, in both replicates (recomputed)
Summary of the method: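 Thermal stability, expressed as log-two fold change relative to solvent controls, is given from duplicates. Crude K562 extract in PBS pH 7.4 with 1 mM MgCl2, at 1 mg/mL protein, was treated with 10 μM compound for 30 min and heated in aliquots for 3 min across 48°C-58°C. After pooling, adjustment to 0.5% NP-40 at 4°C and centrifugation at 21,000xg for 90 min, supernatant protein was measured by TMTpro 16plex LC-MS/MS with channel sums equalised.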

The chains behind the UniProt entries cited, without tags or fusion partners. Where a name states a change or a piece, a line headed by the entry shows the natural chain unless it says otherwise.
UniProt Q9Y5L0: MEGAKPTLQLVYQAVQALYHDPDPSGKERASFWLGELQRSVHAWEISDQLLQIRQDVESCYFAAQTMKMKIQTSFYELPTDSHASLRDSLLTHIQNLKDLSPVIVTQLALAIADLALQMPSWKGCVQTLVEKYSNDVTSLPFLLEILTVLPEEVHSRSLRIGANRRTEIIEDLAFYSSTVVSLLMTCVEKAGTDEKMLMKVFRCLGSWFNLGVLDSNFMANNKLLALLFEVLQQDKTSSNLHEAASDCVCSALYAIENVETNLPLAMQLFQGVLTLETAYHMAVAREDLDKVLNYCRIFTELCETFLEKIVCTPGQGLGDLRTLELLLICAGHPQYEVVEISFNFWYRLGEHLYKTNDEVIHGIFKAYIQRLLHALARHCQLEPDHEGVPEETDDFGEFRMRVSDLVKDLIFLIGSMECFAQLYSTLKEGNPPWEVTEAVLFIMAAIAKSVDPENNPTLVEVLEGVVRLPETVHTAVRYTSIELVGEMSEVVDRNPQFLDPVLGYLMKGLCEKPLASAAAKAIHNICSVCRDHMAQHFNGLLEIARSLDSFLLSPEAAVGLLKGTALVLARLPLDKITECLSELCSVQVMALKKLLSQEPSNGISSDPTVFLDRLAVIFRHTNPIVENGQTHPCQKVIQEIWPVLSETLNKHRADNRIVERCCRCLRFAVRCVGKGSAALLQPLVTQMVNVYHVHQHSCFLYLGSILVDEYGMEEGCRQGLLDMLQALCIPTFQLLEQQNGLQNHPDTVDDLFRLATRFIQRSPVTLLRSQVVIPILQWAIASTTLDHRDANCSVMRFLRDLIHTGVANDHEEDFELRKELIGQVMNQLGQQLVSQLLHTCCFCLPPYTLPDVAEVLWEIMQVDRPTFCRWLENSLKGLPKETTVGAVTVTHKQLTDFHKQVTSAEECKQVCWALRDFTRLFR
UniProt Q92547, whole entry, looked up: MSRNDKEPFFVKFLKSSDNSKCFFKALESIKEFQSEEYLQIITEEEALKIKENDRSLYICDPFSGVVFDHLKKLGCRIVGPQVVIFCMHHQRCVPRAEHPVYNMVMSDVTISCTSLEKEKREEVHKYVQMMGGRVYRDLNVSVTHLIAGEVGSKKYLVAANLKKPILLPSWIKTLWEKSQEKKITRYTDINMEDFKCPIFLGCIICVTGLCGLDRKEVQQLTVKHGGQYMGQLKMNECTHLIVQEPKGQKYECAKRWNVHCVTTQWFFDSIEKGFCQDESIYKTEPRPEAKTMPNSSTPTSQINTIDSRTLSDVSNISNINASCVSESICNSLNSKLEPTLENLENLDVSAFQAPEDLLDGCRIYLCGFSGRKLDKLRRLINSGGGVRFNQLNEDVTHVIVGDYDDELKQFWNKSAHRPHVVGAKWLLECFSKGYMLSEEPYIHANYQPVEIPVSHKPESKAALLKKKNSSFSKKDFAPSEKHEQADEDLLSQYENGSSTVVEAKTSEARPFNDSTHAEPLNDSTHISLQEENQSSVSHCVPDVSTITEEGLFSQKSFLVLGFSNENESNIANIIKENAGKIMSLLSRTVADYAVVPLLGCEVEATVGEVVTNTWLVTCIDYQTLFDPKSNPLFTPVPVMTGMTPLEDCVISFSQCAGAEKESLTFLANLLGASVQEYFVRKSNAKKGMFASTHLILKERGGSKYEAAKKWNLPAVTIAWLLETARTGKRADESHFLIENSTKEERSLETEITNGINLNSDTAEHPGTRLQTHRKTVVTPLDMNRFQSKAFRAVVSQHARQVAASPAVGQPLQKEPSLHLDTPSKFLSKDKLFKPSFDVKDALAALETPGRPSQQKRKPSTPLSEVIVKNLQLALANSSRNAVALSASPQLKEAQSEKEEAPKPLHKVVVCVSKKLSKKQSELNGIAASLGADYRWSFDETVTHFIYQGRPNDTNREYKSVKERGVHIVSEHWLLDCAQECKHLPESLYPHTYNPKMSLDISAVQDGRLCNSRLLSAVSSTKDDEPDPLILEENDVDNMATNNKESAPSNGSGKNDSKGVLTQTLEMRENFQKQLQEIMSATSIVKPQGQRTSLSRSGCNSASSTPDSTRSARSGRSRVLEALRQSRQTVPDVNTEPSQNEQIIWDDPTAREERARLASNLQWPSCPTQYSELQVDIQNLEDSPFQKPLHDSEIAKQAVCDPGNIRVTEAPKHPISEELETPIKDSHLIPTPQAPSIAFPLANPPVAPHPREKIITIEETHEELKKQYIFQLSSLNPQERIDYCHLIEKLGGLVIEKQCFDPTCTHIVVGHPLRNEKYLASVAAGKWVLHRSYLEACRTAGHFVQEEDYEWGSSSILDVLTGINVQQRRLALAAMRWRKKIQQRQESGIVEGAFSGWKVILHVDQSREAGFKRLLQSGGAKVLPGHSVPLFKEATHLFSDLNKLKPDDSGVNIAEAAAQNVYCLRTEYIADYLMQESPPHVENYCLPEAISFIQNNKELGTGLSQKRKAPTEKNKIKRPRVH
UniProt Q96HA7: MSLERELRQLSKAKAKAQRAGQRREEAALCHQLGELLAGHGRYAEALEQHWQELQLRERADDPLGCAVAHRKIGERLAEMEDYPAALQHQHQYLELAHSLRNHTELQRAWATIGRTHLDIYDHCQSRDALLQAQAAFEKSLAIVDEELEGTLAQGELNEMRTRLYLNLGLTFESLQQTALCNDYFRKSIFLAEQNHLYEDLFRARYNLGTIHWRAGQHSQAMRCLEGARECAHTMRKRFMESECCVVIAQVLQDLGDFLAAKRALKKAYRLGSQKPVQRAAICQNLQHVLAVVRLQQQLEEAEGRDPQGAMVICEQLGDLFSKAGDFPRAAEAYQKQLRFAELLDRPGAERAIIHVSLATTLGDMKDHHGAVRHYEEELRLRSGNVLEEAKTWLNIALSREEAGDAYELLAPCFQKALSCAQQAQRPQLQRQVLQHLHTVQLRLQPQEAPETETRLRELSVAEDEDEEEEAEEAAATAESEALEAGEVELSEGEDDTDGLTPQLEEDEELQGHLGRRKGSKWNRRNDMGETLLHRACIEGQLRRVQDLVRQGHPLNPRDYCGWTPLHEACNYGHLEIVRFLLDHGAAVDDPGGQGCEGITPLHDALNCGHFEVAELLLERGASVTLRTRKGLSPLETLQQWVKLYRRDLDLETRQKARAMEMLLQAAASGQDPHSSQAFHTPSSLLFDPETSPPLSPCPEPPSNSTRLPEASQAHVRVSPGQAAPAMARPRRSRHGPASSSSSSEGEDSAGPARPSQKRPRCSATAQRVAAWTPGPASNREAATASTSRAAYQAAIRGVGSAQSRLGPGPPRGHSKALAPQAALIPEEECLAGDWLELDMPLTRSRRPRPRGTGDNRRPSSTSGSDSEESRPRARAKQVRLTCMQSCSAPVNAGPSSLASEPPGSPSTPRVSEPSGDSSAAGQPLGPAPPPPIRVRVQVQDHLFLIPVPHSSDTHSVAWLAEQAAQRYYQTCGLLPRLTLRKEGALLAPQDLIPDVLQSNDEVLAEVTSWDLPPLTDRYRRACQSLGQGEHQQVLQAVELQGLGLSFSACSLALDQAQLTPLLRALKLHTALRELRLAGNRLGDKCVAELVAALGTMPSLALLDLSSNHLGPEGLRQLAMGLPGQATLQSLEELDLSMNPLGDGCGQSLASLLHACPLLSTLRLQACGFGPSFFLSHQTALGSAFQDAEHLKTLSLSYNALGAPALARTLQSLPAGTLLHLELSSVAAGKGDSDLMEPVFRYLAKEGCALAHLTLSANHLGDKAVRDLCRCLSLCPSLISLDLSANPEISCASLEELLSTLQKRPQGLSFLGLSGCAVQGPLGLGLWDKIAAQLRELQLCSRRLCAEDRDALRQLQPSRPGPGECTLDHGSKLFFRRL
UniProt P06753, whole entry, looked up: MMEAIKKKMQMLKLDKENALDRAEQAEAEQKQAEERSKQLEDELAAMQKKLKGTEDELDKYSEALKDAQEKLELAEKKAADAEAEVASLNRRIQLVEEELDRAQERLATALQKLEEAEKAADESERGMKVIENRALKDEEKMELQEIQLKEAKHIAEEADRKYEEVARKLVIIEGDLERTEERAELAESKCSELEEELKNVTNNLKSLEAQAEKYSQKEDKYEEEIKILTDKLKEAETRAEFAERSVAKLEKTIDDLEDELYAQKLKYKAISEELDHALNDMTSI
UniProt O94842: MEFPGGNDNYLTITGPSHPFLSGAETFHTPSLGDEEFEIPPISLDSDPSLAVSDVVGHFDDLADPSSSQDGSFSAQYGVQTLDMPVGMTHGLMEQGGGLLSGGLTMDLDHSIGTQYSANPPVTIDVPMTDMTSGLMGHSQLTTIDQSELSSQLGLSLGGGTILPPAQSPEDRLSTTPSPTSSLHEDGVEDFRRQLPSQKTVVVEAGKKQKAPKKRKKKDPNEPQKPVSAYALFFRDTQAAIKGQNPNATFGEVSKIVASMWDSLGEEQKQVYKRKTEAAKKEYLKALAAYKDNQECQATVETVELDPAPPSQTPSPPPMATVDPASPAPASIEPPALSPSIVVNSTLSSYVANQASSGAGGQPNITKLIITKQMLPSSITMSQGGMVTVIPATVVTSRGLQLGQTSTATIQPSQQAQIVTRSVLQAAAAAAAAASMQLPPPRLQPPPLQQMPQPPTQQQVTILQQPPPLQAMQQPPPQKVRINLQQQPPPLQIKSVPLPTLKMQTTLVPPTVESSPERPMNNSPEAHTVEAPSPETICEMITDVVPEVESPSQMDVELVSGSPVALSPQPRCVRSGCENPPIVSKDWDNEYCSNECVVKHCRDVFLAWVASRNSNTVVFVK
UniProt Q9NQ34: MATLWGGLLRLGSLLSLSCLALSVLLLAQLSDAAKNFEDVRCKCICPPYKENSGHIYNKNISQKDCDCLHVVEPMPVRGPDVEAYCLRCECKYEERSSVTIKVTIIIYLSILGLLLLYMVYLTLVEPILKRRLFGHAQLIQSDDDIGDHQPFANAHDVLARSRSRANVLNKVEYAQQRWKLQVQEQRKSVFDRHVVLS
UniProt O43399: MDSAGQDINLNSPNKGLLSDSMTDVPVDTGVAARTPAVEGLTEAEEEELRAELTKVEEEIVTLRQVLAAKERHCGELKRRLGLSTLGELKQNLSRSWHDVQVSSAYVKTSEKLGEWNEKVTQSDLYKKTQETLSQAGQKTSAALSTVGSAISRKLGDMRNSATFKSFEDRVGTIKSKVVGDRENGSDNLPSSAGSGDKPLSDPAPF
UniProt Q5BJF2, whole entry, looked up: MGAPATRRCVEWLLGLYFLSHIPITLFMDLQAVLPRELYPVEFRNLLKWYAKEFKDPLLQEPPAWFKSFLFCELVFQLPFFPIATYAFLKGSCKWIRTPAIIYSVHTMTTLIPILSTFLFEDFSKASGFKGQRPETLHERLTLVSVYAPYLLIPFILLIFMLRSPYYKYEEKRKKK
UniProt O95379: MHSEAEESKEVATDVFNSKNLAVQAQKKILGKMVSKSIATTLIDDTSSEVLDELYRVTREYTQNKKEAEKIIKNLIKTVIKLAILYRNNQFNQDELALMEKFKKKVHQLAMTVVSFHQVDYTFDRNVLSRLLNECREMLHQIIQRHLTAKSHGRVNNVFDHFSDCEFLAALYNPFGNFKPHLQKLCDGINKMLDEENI
UniProt Q5JTV8: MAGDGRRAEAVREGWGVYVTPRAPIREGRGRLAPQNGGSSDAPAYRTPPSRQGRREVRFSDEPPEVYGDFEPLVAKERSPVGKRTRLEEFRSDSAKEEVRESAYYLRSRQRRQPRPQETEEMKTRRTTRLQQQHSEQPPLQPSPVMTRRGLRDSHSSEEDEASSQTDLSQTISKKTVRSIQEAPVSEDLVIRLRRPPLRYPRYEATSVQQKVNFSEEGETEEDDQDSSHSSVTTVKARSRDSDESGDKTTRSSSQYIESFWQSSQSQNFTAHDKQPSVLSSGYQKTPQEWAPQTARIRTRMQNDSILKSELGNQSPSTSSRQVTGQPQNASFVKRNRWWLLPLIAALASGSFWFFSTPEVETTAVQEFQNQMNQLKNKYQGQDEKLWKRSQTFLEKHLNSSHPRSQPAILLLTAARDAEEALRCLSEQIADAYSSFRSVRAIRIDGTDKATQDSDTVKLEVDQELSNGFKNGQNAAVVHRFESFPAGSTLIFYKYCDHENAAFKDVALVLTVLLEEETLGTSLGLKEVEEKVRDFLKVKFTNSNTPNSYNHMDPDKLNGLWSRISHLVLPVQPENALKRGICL

log2 fold change, inactive:
TNPO3 (UniProt Q9Y5L0) 0.022
TOPBP1 (UniProt Q92547) 0.028
TPP2 (UniProt Q5VZU9) 0.109
TONSL (UniProt Q96HA7) 0.004
TPM3 isoform 3 (UniProt P06753) -0.024
TOX4 (UniProt O94842) -0.006
TMEM9B (UniProt Q9NQ34) -0.125
TPM3 (UniProt P06753) 0.008
TPD52L2 isoform 7 (UniProt O43399) -0.016
TMEM97 (UniProt Q5BJF2) 0.004
TNFAIP8 isoform 4 (UniProt O95379) 0.017
TOP2B isoform 2 (UniProt Q02880) -0.005
TPM3 isoform 2 (UniProt P06753) -0.029
TOR1AIP1 isoform 3 (UniProt Q5JTV8) 0.017

Reprinted at random: 2 entries already listed.
log2 fold change, inactive:
TPM3 isoform 3 (UniProt P06753) -0.024
TOX4 (UniProt O94842) -0.006
